This is an account of results in publication PMC12870119.

These are yes or no findings as the source states them, for the method shown. In cells and extracts the contact can be indirect. Some entries that bind do so weakly or less than the wild type.

For this assay, the target named is T1, Stimulator of interferon genes (mouse (endogenous in DC2.4)) (UniProt Q3TBT3).
T1 sequence: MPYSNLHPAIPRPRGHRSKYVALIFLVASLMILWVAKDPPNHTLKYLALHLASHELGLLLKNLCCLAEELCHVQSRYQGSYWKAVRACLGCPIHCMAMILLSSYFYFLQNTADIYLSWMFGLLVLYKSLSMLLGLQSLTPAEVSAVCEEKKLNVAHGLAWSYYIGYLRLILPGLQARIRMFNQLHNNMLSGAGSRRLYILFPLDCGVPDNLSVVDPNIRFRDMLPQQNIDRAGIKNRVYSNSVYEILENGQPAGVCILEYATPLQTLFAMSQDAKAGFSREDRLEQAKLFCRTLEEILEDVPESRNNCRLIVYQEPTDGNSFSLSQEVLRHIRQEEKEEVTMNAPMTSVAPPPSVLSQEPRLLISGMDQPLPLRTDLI
Description: co-IP; con DC2.4 cell lysates (nondenaturing lysis) immunoprecipitated with anti-STING antibody, protein A magnetic beads, immunoblotted with anti-TRIM13; cells stimulated with LPS (1 ug/ml, 24 h), DMSO, ESI (20 uM, 4 h) or XRK3F2 (10 uM, 24 h); IgG control. (In general: A western blot detects proteins with antibodies after separation by electrophoresis.)

B1: Tripartite motif 13 (protein, UniProt Q9CYB0 1-407)
chain: MELLEEDLTCPICCSLFDDPRVLPCSHNFCKKCLEGLLEGNVRNSLWRPSPFKCPTCRKETSATGVNSLQVNYSLKGIVEKYNKIKISPKMPVCKGHLGQPLNIFCVTDMQLICGICATRGEHTKHVFSSIEDAYAREKNAFESLFQSFETWRRGDALSRLDTLETNKRKALQLLTKDSDKVKEFFEKLQHTLDQKKNEILSDFETMKLAVMQTYDPEINKINTILQEQRMAFNIAEAFKDVSEPIIFLQQMQEFREKIKVIKETPLPHSNLPTSPLMKNFDTSQWGDIKLVDVDKLSLPQDTGVFTSKIPWYPYLLLMMVVLLGLLIFFGPTVFLEWSPLDELATWKDYLSSFNSYLTKSADFIEQSVFYWEQMTDGFFIFGERVKNVSLVALNNVAEFICKYKLL
Consider B1, for which the binding entry was “binds”.
